Assay [1] concerns the target OTX2 homeoprotein (mouse (endogenous in adult mouse brain tissue)) (UniProt P80206). As to the kind of experiment: affinity purification with mass spectrometry; anti-OTX2 (ab21990) coupled to magnetic beads, lysates of SVZ, RMS and visual cortex pooled from ten 3-month-old wildtype mice; 20 mM Tris pH 8, 120 mM NaCl, 1% NP40, 1 mM MgCl2, 5% glycerol, benzonase; IgG co-IP as control; nano-LC-MS/MS; N = 1; hits common to the three structures.

The chains behind the UniProt entries cited, without tags or fusion partners.
UniProt P80206: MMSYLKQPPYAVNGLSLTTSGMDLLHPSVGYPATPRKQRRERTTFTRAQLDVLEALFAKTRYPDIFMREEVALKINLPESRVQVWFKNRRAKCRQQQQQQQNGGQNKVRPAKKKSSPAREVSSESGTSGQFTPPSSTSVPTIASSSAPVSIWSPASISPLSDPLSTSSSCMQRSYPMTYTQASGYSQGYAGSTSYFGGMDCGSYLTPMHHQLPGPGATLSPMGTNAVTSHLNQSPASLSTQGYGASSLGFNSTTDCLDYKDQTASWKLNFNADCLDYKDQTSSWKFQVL

For assay [2] the target is unchanged. In words: affinity purification with mass spectrometry; anti-OTX2 (ab21990) coupled to magnetic beads, lysate of pooled LV and 4V choroid plexus from four 3-month-old mice; 100 mM Tris pH 7.5, 1 mM EDTA, 100 mM NaCl, 1% NP40, 1 mM MgCl2, benzonase; 4 °C overnight; IgG co-IP as control; nano-LC-MS/MS; N = 3.

These are yes or no findings as the source states them, for the method shown. In cells and extracts the contact can be indirect. A yes stands for co-enrichment or nearness to the bait. Other partners may have been found.

B1: ACOT11 (protein, UniProt Q8VHQ9 21-594)
chain: TSRKSISHPESGDPPTMAEGEGYRNPTEVQMSQLVLPCHTNHRGELSIGQLLKWIDTTACLSAERHAGCPCVTASMDDIYFDHTISVGQVVNIKAKVNRAFNSSMEVGIQVVSEDLCSEKQWSVCKALATFVAHRELSKVKLKQVIPLTEEEKTEHGVAAERRRMRLVYADTIKDLLTHCVIQDDLDKDCSNMVPAEKTRVESVELVLPPHANHQGNTFGGQIMAWMENVATIAASRLCHAHPTLKAIEMFHFRGPSQVGDRLVLKAIVNNAFKHSMEVGVCVEAYRQEAETQRRHINSAFMTFVVLDKDDQPQKLPWIRPQPGEGERRYREASARKKIRLDRKYLVSCKQAEVALSVPWDPSNQVYLSYYNVSSLKTLMAKDNWVLSVEISEVRLYILEEDFLSFHLEMVVNVDAAQVFQLLSDLRRRPEWDKHYRSVELVQQVDEDDAIYHVISPALSGNTKPQDFVILASRRKPCDNGDPYVIALRSVTLPTHHETPEYQRGETLCSGFCLWREGDQMTKVSYYNQATPGFLNYVTTNVSGLSSEFYNTFKACESFLLDNRNDLAPSLQTL
For B1, the binding result in assay [1] and in assay [2] was “binds” each time.

B2: VAC14 (protein, UniProt Q80WQ2 1-782)
chain: MNPEKDFAPLTPNIVRALNDKLYEKRKVAALEIEKLVRDFVAQNNTMQIKHVIQTLSQEFALSQHPHSRKGGLIGLAACSIALGKDSGLYLKELIEPVLTCFNDADSRLRYYACEALYNIVKVARGAVLPHFNVLFDGLSKLAADPDPNVKSGSELLDRLLKDIVTESSKFDLVSFIPLLRERIYSNNQYARQFIISWILVLVSVPDINLLDYLPEILDGLFQILGDNGKEIRKMCEVVLGEFLKEIKKNPSSVKFAEMANILVIHCQTTDDLIQLTAMCWMREFIQLAGRVMLPYSSGILTAVLPCLAYDDRKKSIKEVANVCNQSLMKLVTPEDDEPDEPKSVAQKQTEPNPEDSLPKQEGTASGGPGSCDSSFGSGINVFTSANTDRAPVTLHLDGIVQVLNCHLSDTTIGMMTRIAVLKWLYHLYIKTPRKMFRHTDSLFPILLQTLSDESDEVVLKDLEVLAEIASSPAGQTDDPGAPDGPDLRVNHSELQVPTSGRANLLNPPSTKGLEGSPSTPTMNSYFYKFMINLLQTFSSERKLLEARGPFIIRQLCLLLNAENIFHSMADILLREEDLKFASTMVHTLNTILLTSTELFQLRNQLKDLQTPESQNLFCCLYRSWCHNPVTTVSLCFLTQNYRHAYDLIQKFGDLEVTVDFLTEVDKLVQLIECPIFTYLRLQLLDVKNNPYLIKALYGLLMLLPQSSAFQLLSHRLQCVPNPELLQTEDCLKAAPKSQKGDSPSIDYTELLQHFEKVQKQHLEVRHQRSGRGDHLDRRVIL
B2: the binding entry in assay [1] and in assay [2] was “binds” throughout.

For the origin of these results see publication PMC8396604.
